## Library screen at single concentrations

Values are the deposited “Percent Effect”, in %. The record does not define 0% and 100%; most values in the screen are far below 50% and negative numbers occur (in some assays of this library far below -100). The compounds are a random part of those screened. A dash means the value is not listed here; it may have been measured.

T. brucei: 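Whole-parasite assay of Trypanosoma brucei over 72 hours; the read-out is not stated. Tested at 30 µM. Higher reads as stronger inhibition (inferred: compounds with an IC50 in retests scored well above the rest). Values scatter widely below zero; nearly all retest evidence comes from the higher of the two concentrations used. Of about 64,000 compounds tested this way, about 940 (1.5%) reached 50% or more in at least one test.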
Toxoplasma: 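Assay of Toxoplasma gondii numbers, read through their beta-galactosidase reporter with a colour substrate. Tested at 10 µM. Higher reads as fewer parasites (inferred from which compounds were picked for retests). Size under these conditions: about 67,000 compounds, about 260 of them at 50% or above in at least one test.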

SMILES	T. brucei	Toxoplasma
[H][C@@]12C[C@H](c3nc(C)no3)CN(S(=O)(=O)C3CC3)[C@]1([H])CCO2	-5.726%	14.23%
COc1nc(C)ccc1CNC(=O)NC(C)Cc1c(C)nn(C)c1C (stereo not drawn)	-30.38%	-0.6967%
CC(=O)c1cn(CCC(=O)N[C@H](C(=O)O)C(C)C)c2ccccc12	20.2%	-4.543%
CCc1cnc(C)nc1NCCNc1nc(C)cc(=O)[nH]1	-21.98%	5.109%
CN(Cc1ccccc1OC(F)(F)F)C(=O)C1CC1	-13.48%	-0.6569%
Cc1cc(NC(=O)c2ccc(N3CCOCC3)c(F)c2)[nH]n1	33.01%	-1.857%
COCCN1CCC2(CC1)CC(NC(=O)CN(C)C)c1ccccc1O2.O=C(O)C(F)(F)F.O=C(O)C(F)(F)F (stereo not drawn)	-3.899%	-2.256%
O=C(O)Cn1nc(-c2ccccc2F)ccc1=O	-5.47%	-3.51%
Cc1noc(C)c1C(=O)N1CCCC(c2nccn2Cc2cscn2)C1 (stereo not drawn)	-4.953%	14.03%
Cc1nc(CN2CCN(c3cc(CCN)ncn3)CC2)cs1	4.56%	-1.999%
CC(C)c1nc(C2CCCN2CCNS(C)(=O)=O)no1 (stereo not drawn)	-39.72%	-4.648%
CO[C@H]1CN(C(=O)OC(C)(C)C)CC1NCc1ccoc1 (stereo partly drawn)	-18.59%	-4.975%
[H][C@@]12C[C@H](C(=O)Nc3ccccc3)[C@@]([H])(CN(S(=O)(=O)N(C)C)C1)O2	-20.42%	-13.23%
Cc1ccc2nc(C3CCCN3Cc3csc(C)n3)[nH]c2c1 (stereo not drawn)	5.947%	2.813%
O=C(NC1CCCN(c2ccccc2F)C1)c1ccon1 (stereo not drawn)	-59.1%	6.769%
Cn1nc(C(C)(C)C)cc1NC(=O)Cn1ccccc1=O	-46.27%	-10.92%
CSCCC(=O)N1C[C@@H](C)[C@](O)(C(C)C)C1	-40.47%	5.808%
Cc1noc(C(C)Nc2ccc3oc(C)nc3c2)n1 (stereo not drawn)	-6.032%	1.265%
Cn1nc(N2CCCC(C(=O)Nc3nc4ccccc4[nH]3)C2)ccc1=O (stereo not drawn)	-5.633%	-12.78%
O=C(c1cccc2c1OCO2)N1CCCCC1Cn1cccn1 (stereo not drawn)	7.809%	6.022%
CCn1cc(C(=O)N2CCCN(c3cccnn3)CC2)c2ccccc21	2.111%	-3.846%
CCN(C1CCS(=O)(=O)C1)S(=O)(=O)c1cccc2cc(C)cnc12 (stereo not drawn)	-13.79%	-6.34%
COc1cc(CC2CC(c3ccc4c(c3)OCO4)=NO2)cc2c1OCO2 (stereo not drawn)	-1.71%	-5.984%
CCc1ncc(CN(C)C(=O)Nc2cccnc2N2CCCC2)s1	50.09%	-5.461%
COc1cc(C(=O)N2CC[C@@H](NC(=O)c3ccccn3)[C@H](O)C2)ccn1	3.479%	8.77%
O=C(O)CCc1cccc(C2CCCN2Cc2cccc(Cl)c2)n1 (stereo not drawn)	-20.43%	-0.6567%
Cc1ccc(CC(=O)N2CCCC(c3cc(C(N)=O)[nH]n3)C2)cn1 (stereo not drawn)	-	-0.4253%
CCSc1ccccc1C(=O)NCCn1nc(C(F)(F)F)n(C)c1=O	-11.82%	-4.751%
CC(C)NC(=O)N1CCC(c2nnc3n2CCNC3)CC1	-	9.638%
C=C(C)COc1cccc(CN(C)C(C)c2nccs2)c1 (stereo not drawn)	-10.18%	-6.674%
CSc1ccc(C(=O)C2CCCN(C(=O)Cn3cnnn3)C2)cc1 (stereo not drawn)	-27.65%	-0.8115%
N#CCCN(C(=O)COC1CCCC1)C1CC1	-47.46%	-26.54%
OC1(CN2CCC(Cc3ncccn3)CC2)CCOCC1	-16.21%	29.78%
CN(C)C(=O)c1cccc(CCNS(=O)(=O)c2ccccc2)c1	-23.79%	-12.67%
CCOC(=O)C1CCN(Cc2c(O)ccc3oc4c(c23)CCCC4)CC1	-15.58%	-4.543%
Cc1ccnn1CCNC(=O)c1cnc(N(C)C)nc1	-14.89%	1.274%
Cc1cnn(CC2CN(c3ncnc4c3CCC4)CCO2)c1 (stereo not drawn)	-15.43%	-1.784%
O=C(O)C(F)(F)F.[H][C@@]12CN(Cc3csnn3)C[C@]1([H])OCCN2c1cnccn1	-3.205%	5.907%
CC(=O)c1ccc(NC(=O)NC(C)c2ccc3c(c2)CC(=O)N3)cc1 (stereo not drawn)	-16.57%	-12.41%
Cc1nnc2n1CCN(Cc1c(Cl)ccc3cccnc13)C2	0.3741%	-29.17%
c1nc(CSc2nnc(C3CC3)s2)cs1	25.45%	0.4802%
O=C(O)C(F)(F)F.O=C(O)C(F)(F)F.O=C(O)C(F)(F)F.OCCN1CCC2(CC1)CC(NCc1ccccn1)c1ccccc1O2 (stereo not drawn)	-31.61%	8.821%
CCOCc1cncc2c1CCN(C(=O)c1cscn1)C2.O=C(O)C(F)(F)F	-2.992%	-15.93%
COc1ccc(C(=O)NC2CC2)c(OC)c1	-7.219%	-
Cl.O=C(NCc1ccccc1F)C1=NOC2(CCNC2)C1 (stereo not drawn)	32.02%	5.529%
COC(=O)CCN(CC1CCCO1)C(=O)Cc1ccc(OC)c(OC)c1 (stereo not drawn)	-50.35%	4.515%
O=C(NCc1cc[nH]n1)NCC(O)c1ccc(F)cc1F (stereo not drawn)	15.85%	-1.331%
CNC(=O)c1cccnc1N1CCC(OCc2ccccc2)CC1	-24.44%	15.53%
CCNc1cc2c(nn1)CCN(C(=O)c1ccnc(N(C)C)c1)C2	-2.088%	7.481%
CN1N=C(C(=O)N2CCCC(CCc3cccc(F)c3)C2)CCC1=O (stereo not drawn)	-5.139%	1.67%
CN(C)S(=O)(=O)N1CCCC(c2cccc(Cc3ccccc3F)n2)C1 (stereo not drawn)	46.46%	27.72%
COc1ccccc1C1SCC(=O)Nc2c1c(=O)[nH]n2C1CCCCC1 (stereo not drawn)	-0.2542%	6.669%
CC(=O)Nc1nc(C(=O)NCc2ccc(N3CCOCC3)nc2)cs1	-1.05%	4.97%
CCC(NC(=O)NCc1cccc(N(C)C)n1)c1ccccc1OC (stereo not drawn)	-6.954%	-17.37%
CCCN(c1ccccc1C(=O)O)S(=O)(=O)c1cccc2cccnc12	-3.089%	-11.93%
[H][C@]12CCC[C@@]1(COC)CN(C(=O)COc1ccccc1OC)C2	-70.27%	6.442%
CS(=O)(=O)Cc1noc(CN(Cc2ccco2)c2ccccc2)n1	1.012%	-21.98%
O=C(NCCC1=CCCCC1)Nc1cc(C(F)(F)F)c[nH]c1=O	-	3.5%
CC(C)(C)c1cc(C[C@H]2CNCC[C@H]2CC(=O)NCc2cccs2)no1	3.609%	5.419%
CC(C#N)CSc1ccccc1NCC(=O)NC1CCCCC1 (stereo not drawn)	-20.71%	-5.31%
CC(=O)Nc1c(C)cnn1Cc1cc(F)ccc1F	-11.82%	-7.159%
CC(=O)Nc1ccc(Oc2cccc(CN3CCCC3)c2)cc1	-9.625%	7.633%
CN(C)S(=O)(=O)N1CCC(Oc2ccc(C#N)cc2)CC1	-30.73%	-8.549%
CC(C)Nc1ncnc2c1CCNCC2	-40.35%	6.803%
O=C(NCc1cc[nH]n1)NCC(c1ccco1)N1CCCC1 (stereo not drawn)	3.104%	2.499%
CN1Cc2ccccc2N(CC(O)C(F)(F)F)CCC1=O (stereo not drawn)	-25.58%	-13.39%
O=C(O)C(F)(F)F.O=C(O)C(F)(F)F.[H][C@@]12C[C@@H](C(=O)NC)N(C(C)C)[C@]1([H])CN(Cc1c(C)noc1C)C2	-5.276%	5.134%
COCCCNc1ncnc2c1CCN(C(=O)CC1C=CCC1)CC2 (stereo not drawn)	-106.7%	-5.811%
O=C(O)C(F)(F)F.[H][C@@]12C[C@H](C(=O)Nc3cccnc3)[C@@]([H])(CN(C(=O)NC)C1)O2	-373.5%	-23.98%
CC(C)OCCCN(CC(=O)N1CCNCC1)C(=O)c1ccc(F)cc1.O=C(O)C(F)(F)F	-6.979%	-1.16%
N#Cc1cc(S(N)(=O)=O)ccc1N1CCc2c(Cl)cccc2C1	45.41%	34.69%
Nc1nc(CN2CCOC(Cn3cncn3)C2)nc2ccccc12 (stereo not drawn)	0.8229%	0.8616%
CCCN1CCCn2nc(CNC(=O)CCOC)cc2C1	-21.5%	-9.573%
Cc1ccccc1CN1CCC[C@H]1c1nc(-c2cncnc2N)no1	15.03%	-3.173%
Cn1c(CCNC(=O)C2CCCN(C3CCOCC3)C2)n[nH]c1=O (stereo not drawn)	7.409%	-3.959%
COCc1cn(C[C@H]2CC3CCN2C[C@@H]3C(=O)Nc2ccccc2)nn1 (stereo partly drawn)	-12.41%	-19.23%
C/C(=C\c1ccco1)CN(C)C(C)Cc1cc(C)ccn1 (stereo not drawn)	-12.09%	-1.38%
CS(=O)(=O)N1CCOC2(CCN(c3nccs3)CC2)c2ccccc21	-69.61%	9.575%
CC(C1CC1)N(CC(=O)NCC(F)(F)F)C1CC1 (stereo not drawn)	-2.685%	1.063%
CN(C)S(=O)(=O)N1CC[C@]2(C[C@H](Oc3cccnc3)CO2)C1.O=C(O)C(F)(F)F	-10.8%	0.1544%

Some entries from above, unchanged:

- CSc1ccc(C(=O)C2CCCN(C(=O)Cn3cnnn3)C2)cc1 (stereo not drawn) | T. brucei: -27.65%; Toxoplasma: -0.8115%
- COc1nc(C)ccc1CNC(=O)NC(C)Cc1c(C)nn(C)c1C (stereo not drawn) | T. brucei: -30.38%; Toxoplasma: -0.6967%
- O=C(NCCC1=CCCCC1)Nc1cc(C(F)(F)F)c[nH]c1=O | Toxoplasma: 3.5%
- OC1(CN2CCC(Cc3ncccn3)CC2)CCOCC1 | T. brucei: -16.21%; Toxoplasma: 29.78%
- c1nc(CSc2nnc(C3CC3)s2)cs1 | T. brucei: 25.45%; Toxoplasma: 0.4802%
- Cc1nnc2n1CCN(Cc1c(Cl)ccc3cccnc13)C2 | T. brucei: 0.3741%; Toxoplasma: -29.17%
- O=C(O)Cn1nc(-c2ccccc2F)ccc1=O | T. brucei: -5.47%; Toxoplasma: -3.51%
- COc1ccc(C(=O)NC2CC2)c(OC)c1 | T. brucei: -7.219%
- CC(C1CC1)N(CC(=O)NCC(F)(F)F)C1CC1 (stereo not drawn) | T. brucei: -2.685%; Toxoplasma: 1.063%

Data taken from ChEMBL document CHEMBL3988442, “University of Dundee, Small-Polar-MMV Screening Library” (2021).